Literature values as cited in PMC4281354, “The opioid receptor pharmacology of GSK1521498 compared to other ligands with differential effects on compulsive reward-related behaviours” (Psychopharmacology, 2014).

Details: sc pellet containing 75 mg morphine; ref Patrick et al. [1975]; cited from earlier work

CN1CC[C@]23c4c5ccc(O)c4O[C@H]2[C@@H](O)C=C[C@H]3[C@H]1C5 [Morphine, morphine]
brain morphine levels over the period of administration: above 200 ng/g tissue | brain morphine levels, peak: around 600 ng/g tissue
